In PubChem BioAssay AID1259354 (Paczesny and Yang Labs, IUPUI and University of Michigan, 2018):
The whole screen tested about 78,000 compounds, of which about 1,800 (2.3%) were called active. The shares of active, inactive and inconclusive entries below differ from those in the screen. Cut-off read from the data, not from the text of the source: active = inhibition above about 30%; inconclusive = mostly about 10% to 28%; inactive = weaker than that.

By UniProt entry, the sequences of proteins in these tests, tags left out. Where a name states a change or a piece, a line headed by the entry shows the natural chain unless it says otherwise.
UniProt Q01638: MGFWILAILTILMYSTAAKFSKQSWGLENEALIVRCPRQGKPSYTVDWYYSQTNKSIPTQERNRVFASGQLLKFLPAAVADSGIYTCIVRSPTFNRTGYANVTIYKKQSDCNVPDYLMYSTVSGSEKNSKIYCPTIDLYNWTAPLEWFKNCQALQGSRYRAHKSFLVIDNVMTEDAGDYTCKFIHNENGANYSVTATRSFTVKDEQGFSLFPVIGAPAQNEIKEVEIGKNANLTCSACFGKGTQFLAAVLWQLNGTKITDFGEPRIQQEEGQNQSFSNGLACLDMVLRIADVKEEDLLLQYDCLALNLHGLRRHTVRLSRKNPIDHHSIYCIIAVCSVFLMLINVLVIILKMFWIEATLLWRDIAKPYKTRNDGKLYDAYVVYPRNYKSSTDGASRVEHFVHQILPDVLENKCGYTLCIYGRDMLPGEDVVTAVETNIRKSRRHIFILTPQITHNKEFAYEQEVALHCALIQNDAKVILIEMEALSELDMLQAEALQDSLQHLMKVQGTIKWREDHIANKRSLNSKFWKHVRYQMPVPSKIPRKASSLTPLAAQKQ

The molecules below were run against Interleukin-1 receptor-like 1 (Homo sapiens) (UniProt Q01638) (assay: blocks human ST2 binding to IL-33, primary screen, biochemical, AlphaLISA (AID 1259354)). Conditions: AlphaLISA ST2-Fc/biotin-IL-33 interaction, 1 h; at 17 µM, hits give high values.

Structure (SMILES)	inhibition
CN=C(NS(=O)(=O)c1ccc(C)cc1)c1ccc(Cl)cc1	inconclusive: 12%
COC(=O)c1ccc(-c2noc(CN(C)CC3Cc4ccccc4O3)n2)cc1 (stereo not given)	inactive
CCS(=O)(=O)NC(C)C(c1cccs1)N1CCN(c2ccc(OC)cc2)CC1 (stereo not given)	inconclusive: 19%
O=C1CC(c2cccc(Cl)c2)c2cc(Br)c3ccccc3c2N1 (stereo not given)	inactive
CCOC(=O)c1c(NC(=O)c2cccs2)sc2c1CCN(C(C)C)C2	inconclusive: 17%
O=C(CSc1nnc(-c2ccccc2)n1-c1ccccc1)NCc1ccco1	inconclusive: 14%
CC(=O)NC1=NN(C(C)=O)C2(CCCc3ccccc32)S1 (stereo not given)	inactive
Cc1ccc(C)c(CN2CCCN(CC(=O)NC3CCCCC3)S2(=O)=O)c1	inactive
CC(NS(C)(=O)=O)C(=O)NCc1cccnc1N(C)C1CCCCC1 (stereo not given)	inconclusive: 11%
COc1ccc(C2(CNC(=O)c3ccc(Br)o3)CCOCC2)cc1	inconclusive: 13%
CCOC(=O)c1nc(Nc2ccc(Cl)cc2C)c2ccccc2n1	inconclusive: 13%
CC(=O)NCC(=O)Nc1ccc2nc(N3CCC(C)CC3)cc(C)c2c1	inconclusive: 14%
COc1ccc(CNC(=O)c2cc(NC(=O)CC3CCCC3)cc3nc(C4CCCO4)n(C)c23)cc1 (stereo not given)	inactive
COc1ccc(C2NN=C3c4[nH]c5ccc(C)cc5c4CCC32)cc1 (stereo not given)	inconclusive: 23%
Cc1cccc(C(C)C)c1NC(=O)CN(C)CCc1cn[nH]c1	inconclusive: 16%
COc1ccc(-n2ncc3c(N4CCN(c5ccccc5OC)CC4)ncnc32)cc1	inconclusive: 19%
CCOc1ccc(Nc2ccc(S(=O)(=O)NC)cc2[N+](=O)[O-])cc1	inconclusive: 16%
COc1ccc(NC(=O)N[C@H]2CO[C@H]3[C@@H]2OC[C@@H]3n2nnnc2Oc2ccccc2)cc1	inconclusive: 17%
COc1cccc(/C=C2\C(=O)NC(=O)N(c3ccccc3Cl)C2=O)c1OC	inconclusive: 10%
Cc1cc(-c2nc(-c3ccc(Cl)cc3)no2)ccc1[N+](=O)[O-]	inactive

Structure (SMILES)	inhibition
Cc1cccc(C)c1OC1CN(C(CO)CO)C1	inconclusive: 16%
Cc1cc(NC(=O)c2cccc(F)c2)nc2c1c(=O)oc1ccccc12	inactive
Cc1cc(Br)ccc1N1C(=O)Nc2cc(Cl)c(Cl)cc2N1O	inconclusive: 16%
CC(O)CNc1ncnc2sc3c(c12)CCC3 (stereo not given)	inconclusive: 10%
CCc1ccc(OCC(=O)O/N=C(/N)c2ccccn2)c(Br)c1	inconclusive: 11%
COC(=O)c1ccc(-c2csc(NC(=O)c3cc(=O)c4ccccc4o3)n2)cc1	inconclusive: 28%
CCOC(=O)c1c(NC(=O)c2cc(Cl)ccc2OC)sc(C(C)=O)c1C	inconclusive: 15%
Cc1ccc(-n2c(=O)n(C)c3c(C(N)=O)nc(-c4ccc(Cl)cc4)nc32)cc1C	inconclusive: 15%
C=C(C)Cn1c(CNC(=O)c2cccs2)nc2ccccc21	inactive
CC(C)CN1C(=O)N(CCCc2cccnc2)C(=O)C12CCN(C1Cc3ccccc3C1)CC2	inconclusive: 10%
CC(=O)N1CCN(c2ccc([N+](=O)[O-])c(NC(C)C34CC5CC(CC(C5)C3)C4)c2)CC1 (stereo not given)	inactive
OC(COc1ccc(C23CC4CC(CC(C4)C2)C3)cc1)CN1CCOCC1 (stereo not given)	inconclusive: 20%
N=C1S/C(=C\c2ccc([N+](=O)[O-])cc2)C(=O)N1c1nccs1	inconclusive: 19%
Cc1cc(C)c(S(=O)(=O)n2cnc3ccccc32)c(C)c1	inactive
Cc1nc(N2CCN(c3ccccn3)CC2)c2c(C)c(C(=O)N3CC(C)CC(C)C3)sc2n1 (stereo not given)	inconclusive: 20%
FC(F)(F)CCc1nc(C2CC2)n[nH]1	inconclusive: 13%
O=C(NC[C@H]1O[C@@H](CO)[C@@H](O)[C@H]1N1CCc2ccccc2C1)c1ccccc1	inconclusive: 23%
CN(C)CCCNc1c2c(c(C#N)c3nc4ccccc4n13)CCC2	active: 51%
COc1ccccc1-n1c(C)c(C(C)=O)c(C(C)=O)c1C	inconclusive: 11%
Nc1ccc2c(c1)OC1(CCCCC1)O2	active: 37%

Single values from the entries so far:
inhibition with N=C1S/C(=C\c2ccc([N+](=O)[O-])cc2)C(=O)N1c1nccs1 reads inconclusive: 19%
inhibition with Cc1cccc(C)c1OC1CN(C(CO)CO)C1 reads inconclusive: 16%

More compounds follow:

Structure (SMILES)	inhibition
O=C(Nc1ccc(Br)cc1)c1cccc(Cl)c1Cl	inactive
c1cc(CN2CCc3[nH]cnc3C2c2ccsc2)n(-c2nccs2)c1 (stereo not given)	inactive
COCCNc1nc2c(c(=O)n(Cc3cccc(Br)c3)c(=O)n2C)n1C	inconclusive: 18%
CCc1nc(C)c(C(=O)NCc2cccnc2N(C)C)o1	inconclusive: 12%
COc1ccc(/C=C2\N=C(c3cccc(C)c3)OC2=O)cc1	inconclusive: 10%
CC1(C)CC(=O)C2=C(C1)OC(N)=C([N+](=O)[O-])C2c1ccccc1 (stereo not given)	inconclusive: 11%
Cc1cccc(C)c1NC(=O)c1cccc(NC(=O)C(C)n2cccc2)c1 (stereo not given)	inconclusive: 12%
CC1(C)[C@H]2CC=C(CN3CCN(c4ccc([N+](=O)[O-])cc4)CC3)[C@@H]1C2	active: 42%
C=CCn1nc(C)c(-c2c(-c3ccccc3)ncn2Cc2ccccn2)c1C	inconclusive: 14%
C=CCn1c(CCNC(=O)c2ccc(Cl)cc2)nc2ccccc21	inconclusive: 10%
O=C1CCCC2=C1C(c1cccc(Cl)c1)Nc1ccc(C(=O)c3ccccc3)cc1N2 (stereo not given)	inconclusive: 16%
Oc1ccccc1CN1C[C@H](O)C[C@H]1c1nc(-c2ccncc2)no1	inconclusive: 24%
Cc1cc(C)n(CC(C)NCc2ccccc2-n2ccnc2C)n1 (stereo not given)	inconclusive: 12%
CC[C@H]1CN(C(=O)c2ccccc2)CC[C@H]1CC(=O)N1CCC(C(N)=O)CC1	inactive
CC(NC(=O)c1ccc(-n2cnnc2)cc1)c1ccccc1-n1cccn1 (stereo not given)	inactive
O=C(c1ccccc1)N1CCN(C(=O)c2cccs2)CC1	inconclusive: 15%
CSCc1ccc2oc(C(=O)O)cc2c1	inconclusive: 11%
N#CC1=C(N)OC2=C(C(=O)CCC2)C12C(=O)Nc1ccccc12 (stereo not given)	inactive
CCOc1cc(/C=C2/NC(=O)NC2=O)cc(Cl)c1OCc1cccc(C(=O)O)c1	inactive
CCc1nc(-c2nccn2CCCOc2cccnc2)c(C)[nH]1	inconclusive: 11%
